Data set [1] in a line: folding stability dG unfold from trypsin proteolysis; higher = more stable. An outline of the steps: (§1)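 How resistant each design was to proteolysis was captured as K50, inferred by Bayesian fitting of sequencing counts. Unfolding free energy was then derived relative to a sequence-predicted unfolded-state K50 and a shared folded-state K50, per protease or combined. Digestion used trypsin and chymotrypsin at 11 threefold-diluted concentrations plus a no-protease condition, on mini-proteins under 80 residues without cysteine in a PA-tagged cDNA display construct. Designs were kept only when AlphaFold2 dimer inter-PAE was above 15.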

Data set [2] in a line: folding stability dG unfold from chymotrypsin proteolysis; higher = more stable. An outline of the steps: as §1
Data set [3] can be described thus: folding stability dG unfold (combined trypsin and chymotrypsin); higher = more stable. Summed up:
as §1

± gives the half width of the 95% confidence interval. For many entries, trypsin and chymotrypsin gave values far apart.

As to “SAGGKTISIEFYMPPGEPPPSIEEIAKELFPGYKDIKIKNIEIEDVEPDPDNGMKYVRVSFTIEVEPPSAGG [r13_10_TrROS]”, the “folding stability dG unfold” value in data set [1] is 3.25 ± 0.27 kcal/mol; in data set [2], 3.42 ± 0.23 kcal/mol; in data set [3], 3.39 ± 0.25 kcal/mol.
In the same order, the values of “SAGGSAGGSAGDLPPGQILMFQIEIEMTHEVYNPDNGKKVHEHDVKIPIWIIFVLPPDMPSAGGSAGGSAGG [r11_970_TrROS]” are 2.72 ± 0.15 kcal/mol, 4.83 ± 0.15 kcal/mol and 4.4 ± 0.15 kcal/mol.
As to “SAGGGIVEKIKEIIEKLGVKYEVTETEEGIVITVEADPETYKKIKEEIEKLTGKPVKVLLIKPGESKSAGGS [r16_514_JUSTAS]”, the results for the “folding stability dG unfold” value in data set [1], in data set [2] and in data set [3] were 0.998 ± 0.1 kcal/mol, 4.85 ± 0.14 kcal/mol and 4.61 ± 0.29 kcal/mol, respectively.
For “SAGGSAGGSAGGEFEVRVVPVLDPNGRPLLLRYIPPLGTVQVFDPRTGKLVATLPAELLSAGGSAGGSAGGS [r10_589_TrMRF]” the same measures were -0.559 ± 0.36 kcal/mol, 1.79 ± 0.14 kcal/mol and 1.42 ± 0.065 kcal/mol.
For the sequence “SAGGSAGGSAKTVVINIKDLKLSKDGKLTVEEIKKRIKELLKKKGIKKVTVKTVEELLKALKSAGGSAGGSA [r18_72_TrROS_Hall]”, the “folding stability dG unfold” value in data set [1] is 0.898 ± 0.062 kcal/mol; in data set [2] it was 1.41 ± 0.086 kcal/mol; in data set [3], 1.26 ± 0.074 kcal/mol.
In the same order, the values of “SAGGSAGGSAEVIDKPFDEVLEELGVSPENVEWEPLEDGGWIARLPNGKPVLLVVPPELAASAGGSAGGSAG [r3_477_TrMRF]” are -1.16 ± 0.34 kcal/mol, 1.34 ± 0.026 kcal/mol and 1 ± 0.059 kcal/mol.
As to “GPLEERVEALRARVEALLRELGLPEDVVVTVEVEFERTPSGEPGLRVRVTVTSPGPPGALPAAFEAALAALS [r1_98_JUSTAS]”, the “folding stability dG unfold” value in data set [1] was found to be 1.29 ± 0.045 kcal/mol; in data set [2], 3.46 ± 0.048 kcal/mol; in data set [3], 3.19 ± 0.095 kcal/mol.
In the same order, the values of “SMIIKIKIKEIKLEKNKDGSLTLTIKLENGKEIKLTFPKGWKIKKIEIKEDGYIYIEIEPVKKKSEEEKKSA [r9_501_TrROS_Hall]” are 1.53 ± 0.079 kcal/mol, 3.75 ± 0.1 kcal/mol and 3.25 ± 0.16 kcal/mol.
Regarding “SAGGSAMKKGEKVKIKVKVKVYKKNKDGKWEKIKEIEIEMTLEEVKKIAENLPKDYKVEIVDIEIESAGGSA [r15_833_TrROS_Hall]”, the “folding stability dG unfold” value in data set [1] is 1.28 ± 0.087 kcal/mol; in data set [2], 3.45 ± 0.08 kcal/mol; in data set [3], 2.77 ± 0.31 kcal/mol.
For “SAGGSAGGSAGGGSMTLELPLPEWSEEEIEALAEELKKKGLKVKEIERDPESDVVRITVESAGGSAGGSAGG [r7_906_JUSTAS]” the same measures were 1.79 ± 0.1 kcal/mol, 2.28 ± 0.078 kcal/mol and 2.15 ± 0.11 kcal/mol.
In the same order, the values of “SAGGLNIVKAEITKIEVTENGIKLTVVADVPNGLKIIAVFEIPAGNPNIPILKEVKLVYVPPELAGKSAGGS [r16_161_TrMRF]” are 1.38 ± 0.057 kcal/mol, 3.64 ± 0.039 kcal/mol and 3.2 ± 0.094 kcal/mol.
On to “SAGGSAETVTITLKLKDGSTITITYDKETNTVTITIEKDGKKITVTIKMTPEEVEKLIKELLKKLKSAGGSA [r15_662_TrROS_Hall]”, for which the “folding stability dG unfold” value in data set [1] was 2.92 ± 0.14 kcal/mol; in data set [2] it was 5.21 ± 0.18 kcal/mol; in data set [3], 5.05 ± 0.24 kcal/mol.
In the same order, the values of “SAGGSAGGSEIKEGEKVTLEITLLVYDKETKRYYLVRMEIVVDAKTNEIVEMKMEVYELPEEPSAGGSAGGS [r12_868_TrROS_Hall]” are 3.16 ± 0.3 kcal/mol, 5.74 ± 0.13 kcal/mol and 5.83 ± 0.97 kcal/mol.
Regarding “SAMYKVTVTFYDPNNDTPIATREFTIEEEEIEEFKEKLKKELGIDPNQKLVITVTPVPVKGNETGKKLESAG [r14_297_JUSTAS]”, the figures for the “folding stability dG unfold” value in data set [1], in data set [2] and in data set [3] were 1.7 ± 0.08 kcal/mol, 3.95 ± 0.085 kcal/mol and 3.37 ± 0.23 kcal/mol, respectively.
For “SMEDMIERAIDEILEARENGGPTVTIEMRFPGYMFRIEIDPEGWKIEEIEWEPFPDDMPYIRYTIKLPPDSA [r9_308_TrROS]” the same measures were 2.49 ± 0.15 kcal/mol, 4.95 ± 0.35 kcal/mol and 4.63 ± 0.44 kcal/mol.
For “SAGGSAGGSAGGPMPVSVSPIGTKVEKTEEPLVVETTTTLSDAEGPPVTTTTTTVTPPSTSAGGSAGGSAGG [r11_129_JUSTAS]” the same measures were 1.27 ± 0.08 kcal/mol, 1.33 ± 0.1 kcal/mol and 1.35 ± 0.13 kcal/mol.
Consider “SAGNKIEIEPVNYEPMPNGYYRVTARVTIENPNNKKPWDIDVEAYYPMDPNGQPMNVDEIAKEAIKKIFSAG [r5_604_TrROS]”, for which the “folding stability dG unfold” value in data set [1] is 0.624 ± 0.098 kcal/mol; in data set [2], 1.36 ± 0.11 kcal/mol; in data set [3], 1.07 ± 0.24 kcal/mol.
For “SAEMSPEERELLERLEELAKEAGVTVTIEVDEKTRRITITVEAPSEEKRRKLAEKLRELGLEVEVRPEPSAG [r14_284_TrROS_Hall]”, the “folding stability dG unfold” value was determined as 4.78 ± 0.12 kcal/mol in data set [1], 2.62 ± 0.037 kcal/mol in data set [2] and 4.66 ± 0.15 kcal/mol in data set [3].
In the same order, the values of “SAGSKTITKTYDFGEYTVKVEATYYPEKEGKVEIKITFYKKNNKPIKEIKIEIKASPDDKEVKEFLEKLSAG [r5_958_TrMRF]” are 2.25 ± 0.23 kcal/mol, 4.49 ± 0.22 kcal/mol and 4.26 ± 0.56 kcal/mol.
In the same order, the values of “SAGGSAGGKQPIEITIMFRLENGYFIMIVLKIEINPGTGQFKIDILDIYIFKSPNGKWVPLDDFSAGGSAGG [r6_866_TrROS]” are 2.75 ± 0.13 kcal/mol, 5.12 ± 0.06 kcal/mol and 4.98 ± 0.18 kcal/mol.
For “SAGGSAMTKTIVDPNLSIEEAKKKLEELLKEEGKEPVKVTTEEDPETGTYTITVELPNGEKVVFRNSAGGSA [r15_958_JUSTAS]” the same measures were 2.02 ± 0.14 kcal/mol, 4.03 ± 0.067 kcal/mol and 3.55 ± 0.12 kcal/mol.
Turning to “SAGGSAGGSKDEYITYKKITIKLKAKITKYIPGKGGYEIEIEDVEIKIEIITLKKKDAKKLAKSAGGSAGGS [r12_723_TrMRF]”, the results for the “folding stability dG unfold” value in data set [1], in data set [2] and in data set [3] were 1.43 ± 0.1 kcal/mol, 3.74 ± 0.11 kcal/mol and 3.07 ± 0.48 kcal/mol, respectively.
In the same order, the values of “SAGGSAGGSAGVVVKKPGTDVVYEITEEPGSYKVTITDPKTGTTKEFTVSPEVSIESLLLSAGGSAGGSAGG [r11_772_JUSTAS]” are 1.22 ± 0.092 kcal/mol, 0.757 ± 0.13 kcal/mol and 1.15 ± 0.14 kcal/mol.
In the same order, the values of “SAGGSAGGSMIIRIKTENGEEIEIEAESEEEAKKAAEELKKELEEKGYKIEEVEIYEIPEEELSAGGSAGGS [r12_301_TrROS_Hall]” are 1.13 ± 0.076 kcal/mol, 2.32 ± 0.13 kcal/mol and 2.05 ± 0.26 kcal/mol.
In the same order, the values of “SAGMEIEIEVEMSEEEAERLAKELAERLRELFPGVKVEVEVRVERRPDGRVRVRVRIRIEPLPPGEPLLSAG [r5_936_TrROS_Hall]” are 4.75 ± 0.2 kcal/mol, 2.07 ± 0.044 kcal/mol and 3.9 ± 0.27 kcal/mol.
In the case of “SAGGSAGGSAGGTTTTVTFSSEEEAKKLAEEYKKKGYKVEITEDPATGKVTLTITIKPKGSAGGSAGGSAGG [r7_623_JUSTAS]”, the “folding stability dG unfold” value came to 2.09 ± 0.17 kcal/mol in data set [1], 4.73 ± 0.1 kcal/mol in data set [2] and 4.5 ± 0.21 kcal/mol in data set [3].
For “SAGGMPKPVTLPAVIELGAGPAIAVEEFPETGKLVFVFPPTHRIFVFDPNGKLVAEVDVPPDVPVSAVSAGG [r13_507_TrMRF]” the same measures were 0.901 ± 0.053 kcal/mol, 0.973 ± 0.31 kcal/mol and 0.931 ± 0.15 kcal/mol.
For “SAGGMPEPRPIPLTLTLLVDPEDPESVEEKLREFFEAFGADEITRVERELLPDGRALVTAEVLVNEPVSAGG [r13_222_TrMRF]” the same measures were 1.03 ± 0.03 kcal/mol, 1.17 ± 0.043 kcal/mol and 1.15 ± 0.061 kcal/mol.
On to “SAKIKIEKVEATKEGDYLYVTATLTLEDGSKITVTYKIDKNGKILDYKVEIDPVPPPISDEALEKLKKKSAG [r14_171_TrMRF]”, for which the “folding stability dG unfold” value came to 1.07 ± 0.11 kcal/mol in data set [1], 3.2 ± 0.083 kcal/mol in data set [2] and 2.57 ± 0.56 kcal/mol in data set [3].
For the sequence “SAGGSAGGSMIIIVKLPNGEELPIEVEGEEEAEKIAEEIVKALIEKGITPVSVEIRPIKPEEGSAGGSAGGS [r12_301_TrMRF]”, the “folding stability dG unfold” value in data set [1] worked out at 3.13 ± 0.13 kcal/mol; in data set [2] it was 2.28 ± 0.17 kcal/mol; in data set [3], 2.97 ± 0.21 kcal/mol.
For “SAGGSAGGSKIKEIEVDPEGGWVQIEIPPNEPPKPLPGIKDVEPNDDRQTITFPVKPGDEIKISAGGSAGGS [r20_37_TrROS]” the same measures were -0.943 ± 0.28 kcal/mol, 1.47 ± 0.057 kcal/mol and 1 ± 0.17 kcal/mol.
As to “SAGKEKKPVKTVTITLTLTGPDGSTYTLTLTLTVKPGQTVTITFPNGFKLTITVNEDGSITITLEKLPDSAG [r5_168_TrROS_Hall]”, the “folding stability dG unfold” value turned out to be 2.69 ± 0.16 kcal/mol in data set [1], 5.65 ± 0.25 kcal/mol in data set [2] and 5.05 ± 0.45 kcal/mol in data set [3].
With “SAGGEVTLVLRAESAEEAKAAAEALKALFPDVEVTVEYDEETKEVTVTIKLKPPPPLTEEELEKLKKSAGGS [r16_674_TrROS_Hall]”, the “folding stability dG unfold” value in data set [1] came to 0.257 ± 0.36 kcal/mol; in data set [2] it was 3.44 ± 0.22 kcal/mol; in data set [3] it was 2.93 ± 0.41 kcal/mol.
For “MITLPNMSPEEVVKAIKEAAEAGDPLTVTVPLAPDRRAVVVAALRALPYVTEVRPLPDGSVIVEIDPALLGS [r1_324_JUSTAS]” the same measures were 0.58 ± 0.048 kcal/mol, 3.522 ± 0.026 kcal/mol and 3.19 ± 0.062 kcal/mol.
In the same order, the values of “SAGGAEELARALRDAGYTVTVERLADGTLKLTITLPPPPPVRVERAPPPPRTTTTKTTTTTTTTTTTSAGGS [r16_613_TrROS_Hall]” are -0.473 ± 0.15 kcal/mol, 2.48 ± 0.047 kcal/mol and 1.91 ± 0.08 kcal/mol.

These data come from the supplement of paper PMC12764529.
